This is an account of results in the supplement of paper PMC10849652.

By UniProt entry, the sequences of proteins in these tests, tags left out. Where a name states a change or a piece, a line headed by the entry shows the natural chain unless it says otherwise.
UniProt Q9H792: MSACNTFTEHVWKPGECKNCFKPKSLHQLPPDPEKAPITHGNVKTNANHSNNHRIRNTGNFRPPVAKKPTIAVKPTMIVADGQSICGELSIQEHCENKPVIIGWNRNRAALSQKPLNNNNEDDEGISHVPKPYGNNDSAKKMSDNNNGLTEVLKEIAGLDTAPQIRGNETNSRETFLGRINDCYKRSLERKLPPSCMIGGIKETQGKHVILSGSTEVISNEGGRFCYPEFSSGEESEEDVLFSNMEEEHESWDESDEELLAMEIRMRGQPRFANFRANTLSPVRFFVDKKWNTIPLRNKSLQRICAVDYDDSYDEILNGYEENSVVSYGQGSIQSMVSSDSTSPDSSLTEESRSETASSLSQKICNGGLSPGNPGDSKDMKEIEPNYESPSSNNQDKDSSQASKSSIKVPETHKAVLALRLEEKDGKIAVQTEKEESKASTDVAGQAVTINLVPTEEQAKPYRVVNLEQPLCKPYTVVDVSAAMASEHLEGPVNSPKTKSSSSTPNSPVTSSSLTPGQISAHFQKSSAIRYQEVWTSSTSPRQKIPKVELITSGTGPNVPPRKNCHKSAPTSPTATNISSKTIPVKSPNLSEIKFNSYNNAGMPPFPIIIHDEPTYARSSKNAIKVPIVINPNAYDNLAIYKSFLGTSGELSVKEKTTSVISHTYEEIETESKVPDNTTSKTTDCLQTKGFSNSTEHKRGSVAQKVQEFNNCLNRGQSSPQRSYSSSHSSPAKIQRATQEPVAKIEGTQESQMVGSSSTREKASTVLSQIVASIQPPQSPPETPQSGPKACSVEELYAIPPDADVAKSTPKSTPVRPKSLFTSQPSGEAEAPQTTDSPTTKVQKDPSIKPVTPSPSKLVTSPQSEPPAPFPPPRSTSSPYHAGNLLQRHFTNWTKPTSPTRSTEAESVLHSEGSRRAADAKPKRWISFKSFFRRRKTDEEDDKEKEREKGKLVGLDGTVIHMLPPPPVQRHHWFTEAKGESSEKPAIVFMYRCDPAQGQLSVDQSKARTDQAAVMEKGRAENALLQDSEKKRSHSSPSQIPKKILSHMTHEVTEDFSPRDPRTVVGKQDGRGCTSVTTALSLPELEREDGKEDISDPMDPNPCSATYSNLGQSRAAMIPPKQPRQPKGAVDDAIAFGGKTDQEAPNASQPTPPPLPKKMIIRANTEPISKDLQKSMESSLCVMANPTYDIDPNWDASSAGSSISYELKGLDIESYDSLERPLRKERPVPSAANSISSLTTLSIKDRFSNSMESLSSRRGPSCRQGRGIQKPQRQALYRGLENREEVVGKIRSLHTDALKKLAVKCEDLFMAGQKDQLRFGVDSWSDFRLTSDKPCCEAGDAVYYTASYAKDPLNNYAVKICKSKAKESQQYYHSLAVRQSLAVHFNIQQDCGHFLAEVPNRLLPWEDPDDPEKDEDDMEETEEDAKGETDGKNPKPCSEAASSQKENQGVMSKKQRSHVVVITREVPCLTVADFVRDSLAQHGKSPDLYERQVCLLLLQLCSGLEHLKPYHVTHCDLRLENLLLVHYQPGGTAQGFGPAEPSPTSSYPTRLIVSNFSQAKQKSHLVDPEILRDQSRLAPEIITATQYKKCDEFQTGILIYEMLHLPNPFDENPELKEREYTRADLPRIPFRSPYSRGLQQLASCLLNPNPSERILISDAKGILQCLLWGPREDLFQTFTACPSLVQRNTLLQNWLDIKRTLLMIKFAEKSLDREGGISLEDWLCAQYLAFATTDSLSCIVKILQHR
UniProt P30039: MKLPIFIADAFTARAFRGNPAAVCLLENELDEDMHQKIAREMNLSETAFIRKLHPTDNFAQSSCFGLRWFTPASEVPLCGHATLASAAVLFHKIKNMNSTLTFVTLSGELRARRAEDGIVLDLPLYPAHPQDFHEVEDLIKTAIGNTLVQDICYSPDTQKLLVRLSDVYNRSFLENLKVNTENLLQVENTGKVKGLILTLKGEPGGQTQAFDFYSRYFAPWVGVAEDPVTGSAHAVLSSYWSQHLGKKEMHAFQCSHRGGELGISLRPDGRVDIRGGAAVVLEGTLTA
UniProt P40855: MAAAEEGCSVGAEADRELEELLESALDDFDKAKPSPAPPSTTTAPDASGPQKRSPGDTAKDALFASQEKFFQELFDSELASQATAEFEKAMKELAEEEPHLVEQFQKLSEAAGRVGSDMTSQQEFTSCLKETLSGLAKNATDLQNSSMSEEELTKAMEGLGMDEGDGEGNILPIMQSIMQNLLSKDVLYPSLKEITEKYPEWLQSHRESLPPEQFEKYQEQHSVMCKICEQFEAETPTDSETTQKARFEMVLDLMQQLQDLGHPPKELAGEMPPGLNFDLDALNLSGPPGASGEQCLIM
UniProt Q9UBV8: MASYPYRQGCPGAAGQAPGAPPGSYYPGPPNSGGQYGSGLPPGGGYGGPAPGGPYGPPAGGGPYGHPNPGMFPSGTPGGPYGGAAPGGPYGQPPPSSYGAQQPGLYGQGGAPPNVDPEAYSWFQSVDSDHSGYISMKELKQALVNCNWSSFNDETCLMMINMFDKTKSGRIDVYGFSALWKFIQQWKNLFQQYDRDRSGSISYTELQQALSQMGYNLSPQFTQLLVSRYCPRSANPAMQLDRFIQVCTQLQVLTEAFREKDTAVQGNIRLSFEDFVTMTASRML
UniProt O60825: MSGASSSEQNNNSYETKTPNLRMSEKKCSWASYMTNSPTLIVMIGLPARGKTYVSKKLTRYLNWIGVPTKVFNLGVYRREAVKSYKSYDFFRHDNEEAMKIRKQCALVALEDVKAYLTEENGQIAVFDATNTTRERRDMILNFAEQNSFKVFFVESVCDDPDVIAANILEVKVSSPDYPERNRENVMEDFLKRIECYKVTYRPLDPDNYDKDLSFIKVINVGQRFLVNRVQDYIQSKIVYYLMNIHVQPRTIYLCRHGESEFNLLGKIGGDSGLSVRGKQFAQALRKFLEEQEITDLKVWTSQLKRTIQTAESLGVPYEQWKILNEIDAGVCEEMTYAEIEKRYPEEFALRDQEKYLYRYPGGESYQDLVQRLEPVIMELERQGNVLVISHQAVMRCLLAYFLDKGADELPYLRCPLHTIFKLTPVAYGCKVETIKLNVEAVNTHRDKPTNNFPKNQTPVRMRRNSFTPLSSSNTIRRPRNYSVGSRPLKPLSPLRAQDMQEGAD
UniProt Q15366, whole entry, looked up: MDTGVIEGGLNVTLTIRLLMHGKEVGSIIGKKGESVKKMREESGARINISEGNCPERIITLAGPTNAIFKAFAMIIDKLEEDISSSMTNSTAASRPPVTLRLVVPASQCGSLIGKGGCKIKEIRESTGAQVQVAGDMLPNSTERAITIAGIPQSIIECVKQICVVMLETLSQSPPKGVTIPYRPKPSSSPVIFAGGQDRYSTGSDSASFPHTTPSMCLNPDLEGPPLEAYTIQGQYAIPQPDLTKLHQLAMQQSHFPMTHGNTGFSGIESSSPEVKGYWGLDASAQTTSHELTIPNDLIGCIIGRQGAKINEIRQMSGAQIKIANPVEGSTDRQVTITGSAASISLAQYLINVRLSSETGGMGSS
UniProt P08559, whole entry, looked up: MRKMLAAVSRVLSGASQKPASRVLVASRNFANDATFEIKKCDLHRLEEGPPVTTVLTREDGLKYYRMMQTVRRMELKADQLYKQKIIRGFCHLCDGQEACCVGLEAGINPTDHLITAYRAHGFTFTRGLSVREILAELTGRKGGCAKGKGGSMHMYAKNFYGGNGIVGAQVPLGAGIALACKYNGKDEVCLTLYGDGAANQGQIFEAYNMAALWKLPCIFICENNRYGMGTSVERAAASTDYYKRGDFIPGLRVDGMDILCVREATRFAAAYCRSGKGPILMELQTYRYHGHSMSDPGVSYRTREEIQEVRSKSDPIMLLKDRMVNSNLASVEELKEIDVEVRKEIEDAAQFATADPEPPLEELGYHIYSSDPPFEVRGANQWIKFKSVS
UniProt P0DJ07: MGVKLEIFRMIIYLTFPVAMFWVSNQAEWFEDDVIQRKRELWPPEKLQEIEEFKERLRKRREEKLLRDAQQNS
UniProt O00330, whole entry, looked up: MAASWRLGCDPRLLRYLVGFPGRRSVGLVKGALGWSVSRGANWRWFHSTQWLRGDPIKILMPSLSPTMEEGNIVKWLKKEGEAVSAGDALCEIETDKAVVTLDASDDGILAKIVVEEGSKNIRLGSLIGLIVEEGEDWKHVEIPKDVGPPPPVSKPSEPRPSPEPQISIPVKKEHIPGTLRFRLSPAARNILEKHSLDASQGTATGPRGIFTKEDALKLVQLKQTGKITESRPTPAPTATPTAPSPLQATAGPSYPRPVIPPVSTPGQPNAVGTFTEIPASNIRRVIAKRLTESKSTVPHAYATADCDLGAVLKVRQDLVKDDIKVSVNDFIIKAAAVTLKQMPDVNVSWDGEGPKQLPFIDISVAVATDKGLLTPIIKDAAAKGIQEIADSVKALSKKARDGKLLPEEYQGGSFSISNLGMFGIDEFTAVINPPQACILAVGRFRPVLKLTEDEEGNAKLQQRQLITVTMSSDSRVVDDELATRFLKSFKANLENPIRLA
UniProt O75340: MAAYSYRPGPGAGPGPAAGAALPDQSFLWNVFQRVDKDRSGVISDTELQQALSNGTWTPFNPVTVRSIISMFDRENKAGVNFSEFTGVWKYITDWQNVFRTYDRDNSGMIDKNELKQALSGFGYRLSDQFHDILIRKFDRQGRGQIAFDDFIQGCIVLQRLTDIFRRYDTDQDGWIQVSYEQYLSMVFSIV
UniProt Q96RG2: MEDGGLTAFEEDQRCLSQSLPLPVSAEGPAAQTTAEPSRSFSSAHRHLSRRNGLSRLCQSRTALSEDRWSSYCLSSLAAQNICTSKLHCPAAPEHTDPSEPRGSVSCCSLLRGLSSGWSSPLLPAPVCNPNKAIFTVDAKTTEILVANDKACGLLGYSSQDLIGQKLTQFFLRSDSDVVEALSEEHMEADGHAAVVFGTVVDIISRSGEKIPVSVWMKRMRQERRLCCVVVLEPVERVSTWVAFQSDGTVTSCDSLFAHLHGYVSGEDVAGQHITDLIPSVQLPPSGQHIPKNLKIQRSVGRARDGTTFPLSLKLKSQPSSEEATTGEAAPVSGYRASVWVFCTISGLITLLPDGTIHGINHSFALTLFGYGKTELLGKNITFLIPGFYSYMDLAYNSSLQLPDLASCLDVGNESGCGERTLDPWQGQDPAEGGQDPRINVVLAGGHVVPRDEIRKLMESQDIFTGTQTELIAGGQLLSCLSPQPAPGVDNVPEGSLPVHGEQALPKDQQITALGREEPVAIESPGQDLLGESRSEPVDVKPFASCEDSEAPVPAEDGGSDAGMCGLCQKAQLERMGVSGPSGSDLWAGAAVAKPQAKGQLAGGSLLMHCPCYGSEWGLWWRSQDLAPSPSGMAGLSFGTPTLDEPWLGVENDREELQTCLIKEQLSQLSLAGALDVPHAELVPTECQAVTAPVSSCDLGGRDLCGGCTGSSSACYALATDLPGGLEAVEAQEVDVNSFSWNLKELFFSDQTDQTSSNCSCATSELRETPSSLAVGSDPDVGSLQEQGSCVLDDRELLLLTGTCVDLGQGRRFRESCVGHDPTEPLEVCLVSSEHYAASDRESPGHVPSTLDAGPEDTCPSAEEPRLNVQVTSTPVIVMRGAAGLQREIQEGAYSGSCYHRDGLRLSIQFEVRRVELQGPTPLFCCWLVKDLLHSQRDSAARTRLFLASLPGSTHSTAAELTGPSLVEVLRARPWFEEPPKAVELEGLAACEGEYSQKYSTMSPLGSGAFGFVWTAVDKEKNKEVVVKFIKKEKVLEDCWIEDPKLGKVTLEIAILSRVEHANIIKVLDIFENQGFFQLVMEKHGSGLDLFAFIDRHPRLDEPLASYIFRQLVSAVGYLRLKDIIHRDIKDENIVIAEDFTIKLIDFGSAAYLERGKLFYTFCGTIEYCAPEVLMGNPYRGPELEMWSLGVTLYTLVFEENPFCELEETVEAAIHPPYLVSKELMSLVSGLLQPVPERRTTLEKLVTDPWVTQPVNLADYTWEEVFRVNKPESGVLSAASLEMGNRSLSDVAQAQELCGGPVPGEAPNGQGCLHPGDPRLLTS

This is one part of the list.

Compound in the assay: c1ccc([C@@H]2C[C@H]2NC2CCNCC2)cc1
Description: log2 fold change, soluble protein after heating vs DMSO (PISA); higher = thermal stabilisation; K562 lysate, 10 uM; active = over 0.2 and 3.5 SD of the protein, either way, in both replicates (recomputed). The procedure, abridged: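 K562 pellets were dounce-homogenised in PBS pH 7.4 containing 1 mM MgCl2, and the crude extract, at 1 mg/mL protein, was exposed to 10 μM compound for 30 min. Aliquots were heated for 3 min across 48°C-58°C, pooled, brought to 0.5% NP-40 at 4°C and spun at 21,000xg for 90 min, with the supernatant taken as soluble protein. TMTpro 16plex LC-MS/MS with equalised channel sums quantified that protein. Values are log-two fold changes in thermal stability relative to solvent controls, taken from duplicates.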
Turning to PEAK1 (UniProt Q9H792), the log2 fold change is inactive: 0.019.
Take PBLD (UniProt P30039): the log2 fold change is inactive: 0.013.
To PEX19 (UniProt P40855) belongs inactive: -0.084; to PEF1 (UniProt Q9UBV8), inactive: -0.031.
PFKFB2 (UniProt O60825): the log2 fold change was inactive: -0.008.
In the case of PCBP2 isoform 8 (UniProt Q15366), the log2 fold change was inactive: -0.101.
For the target PDHA1 isoform 4 (UniProt P08559), the log2 fold change was inactive: 0.053.
Turning to PET100 (UniProt P0DJ07), the log2 fold change is inactive: 0.151.
On to PDHX (UniProt O00330), for which the log2 fold change was inactive: 0.053.
The same measure for PDCD6 (UniProt O75340): inactive: -0.022.
The same measure for PASK (UniProt Q96RG2): inactive: 0.01.
